{"source": "patent US20120245230A1", "about": "“METHOD AND COMPOSITION FOR PREPARING STABLE LIQUID FORMULATIONS OF PARACETAMOL” (TECNIMEDE-SOCIEDADE TECNICO- MEDICINAL, S.A., priority 2009, published 2012)", "origin": "cited, not measured here"}
{"smiles": "CC(=O)Nc1ccc(O)cc1", "note": "[Paracetamol]", "values": [{"measurement": "Solubility in water", "value": "very slightly soluble in water"}]}
